For experiment [1], the target named is GFP-tagged DS1-VP7 (VP7 of human rotavirus DS1 strain) (human rotavirus DS1 strain). The experiment is described as follows: co-IP; HEK293 cells co-transfected; NP40 lysis buffer; lysates incubated overnight at 4 °C with Dynabeads protein G coupled with anti-GFP antibody; immunoblot with anti-GFP and anti-FLAG.
Experiment [2] addresses GFP-tagged rotavirus NSP4 (rotavirus (strain not stated)). The description is as above.

No constants are given. Whether binding was seen depends on the method and setting. Binding seen in cells or lysates may run through a third protein. For some assays here: Binding calls can cover weak binding; strength is not graded here. Tags and fused reporters may be left off the sequences shown.

B1: C-terminally Flag-tagged SPCS1 (protein, UniProt Q9Y6A9 1-169)
chain: MARGGDTGCTGPSETSASGAAAIALPGLEGPATDAQCQTLPLTVLKSRSPSPRSLPPALSCPPPQPAMLEHLSSLPTQMDYKGQKLAEQMFQGIILFSAIVGFIYGYVAEQFGWTVYIVMAGFAFSCLLTLPPWPIYRRHPLKWLPVQESSTDDKKPGERKIKRHAKNN
Consider B1, for which the binding result is “binds” in experiment [1] and “no binding” in experiment [2].

(Values after paper PMC12637713.)
